This note sets out measurements from article PMC6785124, “Allosteric regulation of a prokaryotic small Ras-like GTPase contributes to cell polarity oscillations in bacterial motility” (PLoS Biology, 2019).

Results are given in words; binding and its absence hold for the method and conditions named. Sequences can lack the tags named with a protein.

The target of this assay is T1, Myxococcus xanthus Mutual gliding motility A, MxMglA(His6) (Myxococcus xanthus) (UniProt Q1DB04).
T1 sequence: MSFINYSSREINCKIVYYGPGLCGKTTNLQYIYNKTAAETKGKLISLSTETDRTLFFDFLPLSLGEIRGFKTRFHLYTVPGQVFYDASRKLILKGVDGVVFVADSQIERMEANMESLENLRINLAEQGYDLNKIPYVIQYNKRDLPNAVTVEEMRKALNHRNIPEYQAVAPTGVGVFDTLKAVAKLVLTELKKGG
Nature of the assay: fluorescence polarisation; fluorescence anisotropy of 400 nM mant-GDP (m-GDP) mixed with 2 μM MxMglA or its mutant, titrated with MxMglB or MxMglB^ΔCt (concentration as MglB dimer); one site-specific binding fit; both purified. For orientation: In fluorescence polarisation assays a small probe gives low polarisation when free and higher when bound to something large.

For “MxMglB^ΔCt(His6), truncated MxMglB lacking the C-terminal helix (Myxococcus xanthus) (domain or fragment)”, the binding entry is on record as “no binding (only MxMglA bound to m-GDP)”.
